Reference: PubChem BioAssay AID1347076 (National Center for Advancing Translational Sciences (NCATS), 2019)
Screen size: about 400,000 compounds; about 13,000 (3.2%) were called active. The shares of active, inactive and inconclusive entries below differ from those in the screen. Calls come from the whole dose curve; as a rule, active = well fitted cell-killing curve with a large enough effect; inconclusive = small, poorly fitted or top-dose-only effect, or effect the other way; inactive = flat fitted curve, though single readings scatter. Potencies beside an inconclusive call are fits to weak or partial responses and may not hold up.

Test: qHTS assay for MDR1-selective chemotherapeutics: Primary screen using the drug-selected MDR subline cells KB-V1; note: nearly all actives have a fitted effect of over 60% in size
Conditions: KB-V1 MDR cells viability, CellTiter-Glo, 72 h; activity change, negative = cytotoxicity: at 46.1 µM (top of the series)
Summary of the method: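 Cytotoxicity via CellTiter-Glo luminescence after 72 h compound exposure at 37 degrees C. Cells: drug-selected KB-V1 line, DMEM phenol-red free plus 10% FBS. Compounds tested at multiple concentrations; normalized data fitted to concentration-effect curves.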
% is set by controls: 0 for no effect and ±100 for the full control effect; potency is the fitted concentration of half-maximal effect.

Structure (SMILES)	Potency	activity change, negative = cytotoxicity
CC(=O)Oc1ccc(Cn2c(C)c(C(=O)N(C)Cc3ccc(F)cc3)sc2=O)cc1	inconclusive: 20.6 µM [cytotoxic, partial curve]	–
Cc1c(C(=O)NC(C)CN2CCCCC2)oc2ccccc12 (centres undefined)	inactive	–
CC(C)CCNC(=O)c1ccc2c(SCC(=O)O)c3c(nc2c1)CCCC3	–	inconclusive: -48.8%
Cc1ccc(-c2nnc(Nc3ccccc3)c3ccccc23)cc1S(=O)(=O)N1CCN(C)CC1	inactive	–
Cc1cc(/C=N/NC(=O)C(O)(c2ccccc2)c2ccccc2)c(C)n1-c1ccccc1	inconclusive: 16.4 µM [rising, single point]	–
CC(C)(C)c1ccc(-c2noc(-c3ccc4c(c3)CCO4)n2)cc1	inconclusive: 16.4 µM [cytotoxic, single point]	–
COCCNc1nc2cc(-c3ccccc3OC)sc2c(=O)n1C	inconclusive: 8.2 µM [cytotoxic, partial curve]	–
O=C(c1cccc(S(=O)(=O)N2CCc3ccccc3C2)c1)N1CCN(c2ccccc2)CC1	inconclusive: 8.2 µM [cytotoxic, partial curve]	–
COc1ccc(NC(=S)N2CCNC(=O)C2CC(=O)Nc2ccc(C)cc2)cc1 (centres undefined)	inconclusive: 3.26 µM [rising, full curve]	–
COc1cc(Cl)c(C)cc1NC(=O)c1cnn(-c2ccc(F)cc2F)c1C1CCN(C(=O)OC(C)(C)C)CC1	inactive	–
CN(CC(=O)Nc1ccccc1Cl)C(=O)COC(=O)Cc1c(F)cccc1Cl	inactive	–
CCCCCn1nnnc1-c1nc2cc3ccccc3cc2[nH]c1=O	inconclusive: 23.1 µM [cytotoxic, partial curve, poor fit]	–
O=C(NCc1ccc2c(c1)OCO2)NC12CC3CC(CC(C3)C1)C2	inactive	–
CC(C)(C)NC(=O)N1CCC(C(=O)O)CC1	inactive	–
O=C1CCc2cc(S(=O)(=O)NCCc3ccccc3)cc3c2N1CC3	inconclusive: 23.1 µM [cytotoxic, single point]	–
COc1ccc(CCC(=O)NCCS(=O)(=O)N2CCN(c3ccccc3F)CC2)cc1	inconclusive: 11.6 µM [cytotoxic, partial curve, poor fit]	–
CCCS(=O)(=O)c1c(S(=O)(=O)CCC)c2c(N)cccn2c1C(=O)c1ccc(F)cc1	inconclusive: 14.6 µM [cytotoxic, partial curve, poor fit]	–
O=[N+]([O-])c1ccc(S(=O)(=O)NCC(c2cccnc2)N2CCc3ccccc32)cc1 (centres undefined)	inconclusive: 16.4 µM [cytotoxic, partial curve, poor fit]	–
Cc1ccc(C(=O)NC(C)c2ccc3c(c2)OCO3)s1 (centres undefined)	inconclusive: 29.1 µM [cytotoxic, single point]	–

Arranged by SMILES length (rising): part of the list above.
Structure (SMILES)	Potency	activity change, negative = cytotoxicity
O=C1CCc2cc(S(=O)(=O)NCCc3ccccc3)cc3c2N1CC3	inconclusive: 23.1 µM [cytotoxic, single point]	–
CC(=O)Oc1ccc(Cn2c(C)c(C(=O)N(C)Cc3ccc(F)cc3)sc2=O)cc1	inconclusive: 20.6 µM [cytotoxic, partial curve]	–
O=[N+]([O-])c1ccc(S(=O)(=O)NCC(c2cccnc2)N2CCc3ccccc32)cc1 (centres undefined)	inconclusive: 16.4 µM [cytotoxic, partial curve, poor fit]	–
